Results on one substance are retold here after article PMC11183095.

The chains behind the UniProt entries cited, without tags or fusion partners.
UniProt P14618: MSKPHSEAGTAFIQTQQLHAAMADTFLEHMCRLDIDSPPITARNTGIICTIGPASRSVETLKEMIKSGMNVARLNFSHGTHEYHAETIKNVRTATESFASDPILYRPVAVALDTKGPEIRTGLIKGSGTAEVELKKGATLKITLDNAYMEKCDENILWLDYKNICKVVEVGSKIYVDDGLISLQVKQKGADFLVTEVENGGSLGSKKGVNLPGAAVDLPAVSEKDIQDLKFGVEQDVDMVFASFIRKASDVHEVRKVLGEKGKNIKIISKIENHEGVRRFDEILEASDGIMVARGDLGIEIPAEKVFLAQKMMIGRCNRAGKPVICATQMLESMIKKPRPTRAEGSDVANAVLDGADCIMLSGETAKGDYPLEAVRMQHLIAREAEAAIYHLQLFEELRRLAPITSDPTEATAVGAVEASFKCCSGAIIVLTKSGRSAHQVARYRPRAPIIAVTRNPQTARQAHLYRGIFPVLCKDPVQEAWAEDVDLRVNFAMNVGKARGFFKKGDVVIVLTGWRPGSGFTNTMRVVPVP
UniProt P18669: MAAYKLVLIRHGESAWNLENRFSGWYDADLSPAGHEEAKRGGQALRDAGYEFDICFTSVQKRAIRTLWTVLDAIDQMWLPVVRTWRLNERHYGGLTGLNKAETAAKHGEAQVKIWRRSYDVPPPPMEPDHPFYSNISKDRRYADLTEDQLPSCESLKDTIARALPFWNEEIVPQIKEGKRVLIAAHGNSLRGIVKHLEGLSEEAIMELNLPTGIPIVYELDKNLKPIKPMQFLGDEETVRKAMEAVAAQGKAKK

These are yes or no findings as the source states them, for the method shown. In cells and extracts the contact can be indirect. Here binding means that the protein was enriched with, or labelled near, the bait; the list need not be complete.

The experiment deals with Pyruvate kinase M2 (PKM2), endogenous (human (endogenous in A549)) (UniProt P14618). Briefly: affinity purification with mass spectrometry; anti-PKM2 immunoprecipitation from A549 treated with or without TEPP46 (50 μM, 24 h); in-gel digestion, LC-MS/MS.

“Phosphoglycerate mutase 1 (PGAM1), endogenous (from UniProt P18669 1-254) (enzyme)”: the binding entry was “binds”.
